Measured data: PubChem BioAssay AID652259 (Drosophila RNAi Screening Center, 2013)
Test: 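Knock-downs that push a Wingless-driven reporter up or down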 (primary screen). System: Drosophila clone 8 imaginal disc epithelial cells. Reagents: long dsRNA against Drosophila genes. Conditions: pathway stimulated by co-transfected Wingless expression plasmid. Read-out: 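Firefly luciferase from a tcf-site Wingless reporter, measured alongside co-transfected Renilla luciferase that tracks transfection; pathway stimulated by a Wingless plasmid; the firefly-to-Renilla ratio is not deposited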. Scale: firefly reporter light: higher = more Wg reporter light, before normalisation; Renilla control light: higher = more transfected or surviving cells. Active means: 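a knock-down is a candidate when at least two out of four statistical tests show it departing from its plate mean; one test alone signals a weak candidate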. Calls: active = candidate regulator (raises or lowers reporter); inactive = not a candidate.
In all, the deposit lists about 22,000 reagents; below is a random part of those that have a named target and a result. Of all reagents, 233 (1.1%) got an active call. 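Light values are raw, unnormalised plate reads; the ratio scores behind the reporter calls were not deposited.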 Entries without a mark were called inactive. The record does not give: the amount of reagent, the time to read-out, the dose of the treatment.

Depletion of CG12766 (GeneID 38462) [DRSC08295] gave: firefly reporter light, replicate 1 = 6459; Renilla control light, replicate 1 = 3958.
Depletion of eIF3d2 (GeneID 41475) [DRSC15651] resulted in: firefly reporter light, replicate 1 = 7440; Renilla control light, replicate 1 = 3494.
Cyp313a1 (GeneID 41759) [DRSC16624] scored firefly reporter light, replicate 1 = 14416; Renilla control light, replicate 1 = 4184.
Silencing of CG5139 (GeneID 33309) [DRSC00681] gave: firefly reporter light, replicate 1 = 3872; firefly reporter light, replicate 2 = 9896; Renilla control light, replicate 1 = 1624; Renilla control light, replicate 2 = 4084.
For RagC-D (GeneID 35793) [DRSC07239], the entry reads firefly reporter light, replicate 1 = 15720; Renilla control light, replicate 1 = 4853.
CG5455 (GeneID 43196) [DRSC15805] showed firefly reporter light, replicate 1 = 2592; firefly reporter light, replicate 2 = 3817; Renilla control light, replicate 1 = 1316; Renilla control light, replicate 2 = 1684.
Desat1 (GeneID 117369) [DRSC16668] gave firefly reporter light, replicate 1 = 14672; Renilla control light, replicate 1 = 2891.
With knock-down of Lsp1gamma (GeneID 38015) [DRSC08672] the results were firefly reporter light, replicate 1 = 8390; Renilla control light, replicate 1 = 3076.
Against Cyp28c1 (GeneID 32138) [DRSC20236] the deposit lists firefly reporter light, replicate 1 = 20683; Renilla control light, replicate 1 = 8968.
Knock-down of CG11929 (GeneID 33668) [DRSC00339] came out at: firefly reporter light, replicate 1 = 2491; firefly reporter light, replicate 2 = 3293; Renilla control light, replicate 1 = 1120; Renilla control light, replicate 2 = 853.
Against CG43124 (GeneID 12798282) [DRSC13867] the deposit lists firefly reporter light, replicate 1 = 5667; Renilla control light, replicate 1 = 2129.
CG2321 (GeneID 43471) [DRSC15439] showed firefly reporter light, replicate 1 = 1858; firefly reporter light, replicate 2 = 4998; Renilla control light, replicate 1 = 945; Renilla control light, replicate 2 = 2066.
Silencing of CG33110 (GeneID 42659) [DRSC14694] gave: firefly reporter light, replicate 1 = 12945; Renilla control light, replicate 1 = 5362.
CG33110 (GeneID 42659) [DRSC16137] showed firefly reporter light, replicate 1 = 24323; Renilla control light, replicate 1 = 13265.
Depletion of CG7488 (GeneID 41597) [DRSC16250] resulted in: firefly reporter light, replicate 1 = 12711; Renilla control light, replicate 1 = 2960.
For CG5254 (GeneID 31020) [DRSC18611], the entry reads firefly reporter light, replicate 1 = 13280; Renilla control light, replicate 1 = 13248.
ERR (GeneID 38912) [DRSC10840] gave firefly reporter light, replicate 1 = 4824; Renilla control light, replicate 1 = 1645.
For CG33332 (GeneID 2768669) [DRSC15504] the deposit lists firefly reporter light, replicate 1 = 13256; Renilla control light, replicate 1 = 4041.
For CG31128 (GeneID 318601) [DRSC13675], the values are firefly reporter light, replicate 1 = 4656; Renilla control light, replicate 1 = 1973.
After knock-down of ClC-a (GeneID 41428) [DRSC14947] the results were firefly reporter light, replicate 1 = 13325; Renilla control light, replicate 1 = 3523.
Silencing of ClC-a (GeneID 41428) [DRSC14948] resulted in: firefly reporter light, replicate 1 = 14189; Renilla control light, replicate 1 = 4841.
Knock-down of ClC-a (GeneID 41428) [DRSC16142] gave: firefly reporter light, replicate 1 = 7077; Renilla control light, replicate 1 = 2268.
Knock-down of BomBc3 (GeneID 50055) [DRSC15873] resulted in: firefly reporter light, replicate 1 = 34834; Renilla control light, replicate 1 = 8957.
With knock-down of CG14420 (GeneID 31284) [DRSC17917], the screen gave firefly reporter light, replicate 1 = 20829; Renilla control light, replicate 1 = 9913.
Depletion of bun (GeneID 34665) [DRSC01253] resulted in: firefly reporter light, replicate 1 = 25418; Renilla control light, replicate 1 = 10945.
Against bun (GeneID 34665) [DRSC01255], the entry reads firefly reporter light, replicate 1 = 25208; Renilla control light, replicate 1 = 10008.
With knock-down of bun (GeneID 34665) [DRSC03500] the results were reporter change call, replicate 1 = Wg reporter activity raised (active); firefly reporter light, replicate 1 = 13148; Renilla control light, replicate 1 = 1169.
Knock-down of boss (GeneID 43146) [DRSC16916] gave: firefly reporter light, replicate 1 = 19228; Renilla control light, replicate 1 = 13943.
Silencing of Tsp39D (GeneID 35405) [DRSC03099] resulted in: firefly reporter light, replicate 1 = 3447; firefly reporter light, replicate 2 = 7968; Renilla control light, replicate 1 = 1037; Renilla control light, replicate 2 = 3116.
Knock-down of RhoGAP68F (GeneID 39385) [DRSC10717] came out at: firefly reporter light, replicate 1 = 2523; Renilla control light, replicate 1 = 960.
With knock-down of haf (GeneID 33339) [DRSC00381], the record shows firefly reporter light, replicate 1 = 1511; firefly reporter light, replicate 2 = 6970; Renilla control light, replicate 1 = 669; Renilla control light, replicate 2 = 2102.
After knock-down of CG13250 (GeneID 40284) [DRSC11698], the screen gave firefly reporter light, replicate 1 = 15237; Renilla control light, replicate 1 = 5296.
